Assay results: PubChem BioAssay AID2417 (National Center for Advancing Translational Sciences (NCATS), 2010)
Hit rate of the full screen: of about 140,000 compounds, about 4,300 (3.1%) were called active. The inconclusive results got no clear call from the source; some entries with a clear call stand among them for comparison.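 How the source made its calls: active means readout at or below -70, meaning at least 70% loss of cells showing the perinucleolar compartment, a nuclear body marking cancer cells; inconclusive means readout between -30 and a set limit; inactive means the rest.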

Test: High Content Assay for Compounds that inhibit the Assembly of the Perinucleolar Compartment;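 further: plate controls were DMSO wells for no effect and camptothecin positive control wells for full effect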
Conditions: PC3M PTB-GFP, PNC prevalence imaging, 16 h; at 10 µM; hits give low values
Method in brief: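 Read-out is percentage of cells bearing a perinucleolar compartment, from automated 20x imaging of fixed, Hoechst-stained PC3M PTB-GFP cells. Cells were seeded 4 h, then exposed 16 h to compound (23 nl of library stock) in duplicate plates.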

SMILES | activity change (PNC), negative = inhibition
Cc1n[nH]c(C)c1S(=O)(=O)N1CCC(C(=O)N2CCn3c2nc2ccccc23)CC1 | inconclusive: -32.6%
CC(CCc1ccccc1)NC(=O)COC(=O)C1CCC(C(C)(C)C)CC1 (configuration not stated) | inactive: -18.3%
COc1ccccc1NC1=CC(=O)CC(c2ccccc2)C1 (configuration not stated) | active: -96%
O=S(=O)(NC1CC1)c1ccc(S(=O)(=O)N2CCCC3(CCCCC3)C2)cc1 | inconclusive: -58.3%
CCN1CCN(CCNC(=O)c2ccc(CS(=O)(=O)c3ccccc3C)o2)CC1 | inconclusive: -33.8%
O=C(COC(=O)CCCNC(=O)c1ccc(Cl)cc1)Nc1cc(Cl)ccc1Cl | inconclusive: -47.6%
Cc1cc(C)cc(Nc2nc3c(S(=O)(=O)c4ccccc4)nnn3c3ccccc23)c1 | inactive: -19.4%
Cc1[nH]c(=O)[nH]c(=O)c1S(=O)(=O)N1CCN(c2ccccc2F)CC1 | inconclusive: -61.8%
Cc1cc(N2CCCCC2)nc(SCC(=O)c2ccccc2)n1 | inconclusive: -32.1%
O=C1CC(N2CCC(c3nc4ccccc4o3)CC2)C(=O)N1Cc1cccs1 (configuration not stated) | inactive: -3.24%
Cc1nc2scc(-c3ccc(Cl)cc3)c2c(=O)o1 | inconclusive: -46.8%
COc1ccc(-n2c(Cc3cccn3C)nnc2SCC(=O)Nc2ccc(C)cc2)cc1 | inconclusive: -72.7%
O=CNCC(=O)NC1CCCCCC1 | inconclusive: -42.4%
CCN(CC)S(=O)(=O)c1cc(-c2nnc(-c3ccc(Br)cc3)o2)ccc1Br | inconclusive: -34.6%
O=C(O)c1cc(Cl)c(Cl)cc1C(=O)Nc1cccc2cccnc12 | inactive: 8.72%
O=c1cc(N2CCN(c3cccc(Cl)c3)CC2)[nH]c(=O)n1C1CCCCC1 | inconclusive: -77.2%
CC(C)(C)CC(=O)Nc1nnc(-c2cccs2)s1 | inconclusive: -71.4%
Cc1ccc2cccc(NC(=S)NC(=O)c3ccn(C)n3)c2n1 | inconclusive: -63.1%
COC(=O)C(C)N(C(=O)c1ccc(Cl)cc1)c1c(C)cccc1C (configuration not stated) | inconclusive: -44%
Cc1cccc2cc(C3CC(c4ccco4)=NN3S(=O)(=O)c3ccccc3)c(Cl)nc12 (configuration not stated) | active: -91.3%
CCCn1c(=O)c(C(=O)Nc2ccccc2)c(O)c2ccccc21 | inconclusive: -42.6%
SC(COCc1ccccc1)CN1CCN(Cc2ccc3c(c2)OCO3)CC1 (configuration not stated) | inactive: 40.6%
CCOC(=O)C1CCN(C(=O)CCCN2C(=O)c3ccccc3C2=O)CC1 | inactive: -27%

SMILES | activity change (PNC), negative = inhibition
Cc1nc2sccn2c1P(c1c(C)nc2sccn12)c1c(C)nc2sccn12 | active: -80.4%
O=c1c2ccccc2nc2n1CCCS2 | inconclusive: -33.9%
COc1ccc2c(=O)c3c(=O)n(Cc4ccco4)c(-c4ccco4)nc3oc2c1 | inactive: 9.72%
CN1/C(=C\C(=O)c2cncc(Br)c2)C(C)(C)c2ccccc21 | active: -84.3%
N#CCSC1=Nc2ccccc2C2=NC(CCC(=O)N3CCN(c4ccccc4)CC3)C(=O)N12 (configuration not stated) | inconclusive: -68.6%
Cc1cc2cc3c(cc2nc1SCC(=O)N1c2ccccc2CC1C)OCO3 (configuration not stated) | active: -100%
CCCOc1ccc(N2C(=O)CC(N(CCC)C(=O)CCC(=O)O)C2=O)cc1 (configuration not stated) | inactive: -23.4%
CC(C)(C)c1ccc(CNc2ccc([N+](=O)[O-])cn2)cc1 | inconclusive: -53.4%
Cc1ccc(SCc2nc3ccccc3n2CC(=O)Nc2c(C)cccc2C)cc1 | inconclusive: -35.3%
Cc1cc(C)c2c(N)c(C(=O)NCc3ccco3)sc2n1 | active: -97.7%
O=C1CSC(=NC2CCCCC2)N1 | inconclusive: -51.7%
COCCN(CCOC)c1cc(C)c(C#N)c2nc3ccccc3n12 | active: -95%
CC1(C)Cc2c(C#N)c(N3CCN(C(=O)c4ccccc4)CC3)nc(Cc3ccccc3)c2CO1 | inactive: 10.5%
CCOc1ccc(Nc2nc(Cl)nc(N3CCN(c4ccc(OC)cc4)CC3)n2)cc1 | inconclusive: -63%
COCC(C)NC(=O)c1ccc(N(C)C)cc1 (configuration not stated) | inactive: -3.78%
CCC(Sc1nc(C)cc(=O)[nH]1)C(=O)Nc1nc(-c2ccccc2)cs1 (configuration not stated) | inconclusive: -43.7%
CCOC(=O)c1cc(NC(=O)c2cc(C)on2)cc(C(=O)OCC)c1 | inconclusive: -42.9%
Cc1nc2ccccc2n1-c1ccccc1 | inconclusive: -35.6%
CCCCNC(=O)/C=C/c1ccc(OC)c(Br)c1 | inconclusive: -60%
CC1CCCN(C(=O)Cc2ccc(F)cc2)C1 (configuration not stated) | inconclusive: -55.7%
CC(=O)c1ccc(OCC(O)Cn2nnc3ccccc32)cc1 (configuration not stated) | inactive: -30%
Cc1cccc(S(=O)(=O)Nc2nc3ccccc3nc2NCc2ccco2)c1 | inconclusive: -56.7%
CCOC(=O)Cc1csc(/N=C/c2c(O)n(-c3ccccc3C(F)(F)F)c(=O)c3ccccc23)n1 | inconclusive: -38.1%

SMILES | activity change (PNC), negative = inhibition
COc1ccc(NC(=O)CN2C(=O)C(C)SC(C)C2=O)cc1 (configuration not stated) | inactive: -13.6%
COc1ccc(/C=N/n2cc(-c3ccc(OC)cc3)nc2N)cc1 | active: -129%
O=C(CSc1ccccc1Cl)N1CCC(c2nc3ccccc3s2)CC1 | inactive: -6.59%
COC(=O)c1ccc(NC(=O)CN2CCN(S(=O)(=O)c3cc(Cl)ccc3OC)CC2)cc1 | inactive: -8.45%
COc1cc(OC)c(OC)cc1/C=N/n1c(C)nnc1C | inconclusive: -48.9%
Cc1ccccc1C(=O)NNC(=O)C(C)N1C(=O)c2ccccc2C1=O (configuration not stated) | inconclusive: -75.4%
Cc1cc(O)c(C(C)C)cc1NS(=O)(=O)c1ccccc1 | inconclusive: -38.4%
O=C(Nc1nnc(COc2ccc(Cl)cc2)s1)c1ccc([N+](=O)[O-])cc1 | inconclusive: -43.7%
O=C1Nc2ccccc2N(O)N1c1ccc(S(=O)(=O)N2CCCCCC2)cc1 | active: -82.1%
COc1ccc(C(=O)Nn2c(SCC(=O)N3CCC(C)CC3)nc3ccccc3c2=O)cc1 | inactive: -10.2%
CSc1nc(NCCOCCO)c2sc3nc(-c4ccco4)c4c(c3c2n1)CCC4 | inactive: 5.02%
CCCCc1cc(=O)oc2cc(C)cc(O)c12 | inactive: 62.1%
O=C(CN1C(=O)/C(=C\c2ccc(F)cc2)Oc2ccccc21)NCc1ccco1 | inactive: 15.4%
O=C(c1cc2c(cc1Br)OCCCO2)N1CCCCC1 | inactive: 30.4%
CC(C(=O)N1c2ccccc2Sc2ccccc21)n1nnc(-c2cccs2)n1 (configuration not stated) | inactive: -1.12%
COCCn1c(N)c(C#N)c2nc3ccccc3nc21 | inconclusive: -36.4%
O=C(C#Cc1ccccc1)c1cccc([N+](=O)[O-])c1 | inactive: -18.8%
Cc1ccc(Oc2nnc(-c3cccs3)c3ccccc23)cc1C | inconclusive: -53.8%
COC(=O)C1=C(C)N(C)C(=O)/C1=C\c1cccs1 | inconclusive: -42%
COc1ccc(-c2cc(=O)oc3cc(OC(=O)C4CCCCC4)ccc23)cc1 | inconclusive: -36.8%
COc1ccc(C(=O)n2nc(C)cc2C)cc1OC | inactive: -25.9%
Cc1ccc(C(=O)NNC(=O)CSc2nnc(-c3ccncc3)n2C)cc1 | inactive: -2.62%
CC(/C=C/c1ccccc1)=N/NC(=O)CNC(=O)c1ccc2c(c1)OCO2 | inconclusive: -32%

SMILES | activity change (PNC), negative = inhibition
Cc1cc(NC(=O)CCC(=O)N(Cc2cccs2)C(C(=O)NC2CCCC2)c2ccccc2)no1 (configuration not stated) | inconclusive: -37.7%
Cc1cc2nc(SCC(=O)N(C)C)c3c(c2cc1C)CCCC3 | inconclusive: -32.1%
CN1C(=S)N(c2ccccc2)C(=O)/C1=C/c1ccco1 | inconclusive: -52.1%
CC1CN(S(=O)(=O)c2ccccc2)C(C)CN1S(=O)(=O)c1ccccc1 (configuration not stated) | active: -100%
O=C(CN1CCOCCOCCOCC1)Nc1ccccc1 | inactive: 15.4%
CC1Cc2ccccc2N1C(=O)c1nn(C)cc1Br (configuration not stated) | inconclusive: -45%
O=c1[nH]c2cc(Cl)cc(Cl)c2[nH]c1=O | inconclusive: -49.3%
COC(=O)CSc1nc(NC#N)nc(NC(C)C)n1 | inactive: 67.4%
Cn1cc(SCC(=O)O)c2ccccc21 | inconclusive: -45.3%
CCOc1ccc(C2c3c(oc4ccccc4c3=O)C(=O)N2CCCN2CCOCC2)cc1 (configuration not stated) | inactive: 30%
COc1ccccc1N/N=C/c1ccc2c(c1)OCO2 | inconclusive: -30.7%
CC(Cc1cccs1)NC(=S)Nc1ccc(F)cc1 (configuration not stated) | inconclusive: -55%
Cn1/c(=N/N=C/c2ccc([N+](=O)[O-])cc2)sc2ccccc21 | inactive: -1.06%
Cc1nc(N2CCOCC2)nc(OCCN2CCOCC2)c1[N+](=O)[O-] | inconclusive: -32.8%
COc1ccc(S(=O)(=O)NCCc2ccccc2)cc1 | inactive: 23.3%
Cc1cccc(OCC(=O)Nc2ccc(N3CCN(C(=O)c4ccco4)CC3)cc2)c1 | inconclusive: -69.4%
COc1ccc2c(c1)OC1(C)CC2C(C(=O)c2ccccc2OC)C(=O)N1 (configuration not stated) | inconclusive: -70.2%
CCOC(=O)CCCCNCc1ccccc1 | active: -100%
C/C(=N\NC(=O)C1CC1(c1ccccc1)c1ccccc1)c1cccc([N+](=O)[O-])c1 (configuration not stated) | inconclusive: -68.3%
Cn1c(CNc2ccc(Cl)cc2)nnc1SCCN1CCCCC1 | inconclusive: -55%
Oc1cccc(NC(=S)Nc2cccnc2)c1 | active: -87.6%
COc1cc(OC)c(-c2nc3c[n+](CC(=O)c4ccccc4)ccc3n2C)cc1OC | inconclusive: -31.5%
CCOc1ccc(-c2nc(C#N)c(N3CCN(C)CC3)o2)cc1 | inconclusive: -43.5%

5 entries picked at random from those above:
SMILES | activity change (PNC), negative = inhibition
CCCOc1ccc(N2C(=O)CC(N(CCC)C(=O)CCC(=O)O)C2=O)cc1 (configuration not stated) | inactive: -23.4%
CCOC(=O)C1CCN(C(=O)CCCN2C(=O)c3ccccc3C2=O)CC1 | inactive: -27%
COC(=O)C(C)N(C(=O)c1ccc(Cl)cc1)c1c(C)cccc1C (configuration not stated) | inconclusive: -44%
CCN1CCN(CCNC(=O)c2ccc(CS(=O)(=O)c3ccccc3C)o2)CC1 | inconclusive: -33.8%
COc1ccc(NC(=O)CN2C(=O)C(C)SC(C)C2=O)cc1 (configuration not stated) | inactive: -13.6%
